{"source": "paper PMC9478397", "biological_target": "Brucella abortus Bab2_0247 (Ba-BrbF), AFRPP formamidase (Brucella abortus) (UniProt Q2YJ05)", "assay": "two-hybrid", "note": "Results are given in words; binding and its absence hold for the method and conditions named. Some binding calls cover weakened binding; strength is not graded here."}
{"substance": "Brucella abortus Bab2_0247 (Ba-BrbF), AFRPP formamidase (from UniProt Q2YJ05 1-256) (enzyme)", "values": [{"measurement": "binding", "result": "binds"}]}
